Among the data in paper PMC8654288, “Structural basis of DegP protease temperature-dependent activation” (Science Advances, 2021) are binding values, retold here.

The target of this test is T1, DegP PDZ1-PDZ2 domain construct (DegP^261-448) (E. coli K12) (UniProt P0C0V0).
T1 sequence: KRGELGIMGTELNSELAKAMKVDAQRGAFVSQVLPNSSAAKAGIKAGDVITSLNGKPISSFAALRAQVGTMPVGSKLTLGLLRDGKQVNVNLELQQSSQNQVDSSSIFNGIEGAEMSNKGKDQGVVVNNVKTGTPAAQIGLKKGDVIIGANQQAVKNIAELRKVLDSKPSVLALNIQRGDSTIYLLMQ
The test is described as follows: NMR titration; substrates (p23, β-casein, nonactivating reporter peptide) added to the DegP PDZ domains (fig. S12); β-casein up to half equimolar ratio; both purified.

Results are given in words; binding and its absence hold for the method and conditions named. Some binding calls cover weakened binding; strength is not graded here.

B1: β-casein (protein, UniProt P02666 16-224)
chain: RELEELNVPGEIVESLSSSEESITRINKKIEKFQSEEQQQTEDELQDKIHPFAQTQSLVYPFPGPIPNSLPQNIPPLTQTPVVVPPFLQPEVMGVSKVKEAMAPKHKEMPFPKYPVEPFTESQSLTLTDVENLHLPLPLLQSWMHQPHQPLPPTVMFPPQSVLSLSQSKVLPVPQKAVPYPQRDMPIQAFLLYQEPVLGPVRGPFPIIV
For B1, the binding entry is on record as “binds”.
In the case of KASPVSLGYD (Abz at the N-terminus; Y^NO2 at position 9) [fluorescent nonactivating reporter peptide (Abz-…^NO2D)] it was “no binding”.
